Laboratory results: PubChem BioAssay AID1259308 (NCATS, 2017)

- Aim: 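Candidate targets for better recombinant protein yield in mammalian cells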 (primary screen)
- System: human HEK293 embryonic kidney cells stably expressing firefly luciferase (HEK-CMV-Luc2-Hygro)
- Knock-down reagent: single siRNA against human genes, 0.8 pmol siRNA per well
- Duration: 72 h
- Detection: 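Luciferase light (ONE-Glo) measured on one replicate plate set and viability (CellTiter-Glo) on the other, scaled to a negative control siRNA, with robust z-scores and luciferase per cell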
- Direction: total luciferase, z-score and total luciferase, % of control: higher = more reporter protein produced
- Hit rule: 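Active when the median/MAD z-score for overall luciferase is greater than 3; a gene was taken forward for validation with new siRNAs if at least two of its three siRNAs passed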
- Meaning of the calls: active = raised luciferase; inactive = no rise
The deposit covers about 59,000 reagents; below is a random part of them. About 1,510 of all reagents (2.6%) count as active. 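Calls use total luciferase alone and ignore viability, so some active siRNAs may act by altering cell number.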 The numbers tell different reagents against one gene apart. Further read-outs or replicates are left out here. No sequences are given here.

C1orf54 #1
- total luciferase, z-score: -0.413
- total luciferase, % of control: 73.7
- call: inactive

C1orf54 #2
- total luciferase, z-score: -0.876
- total luciferase, % of control: 64.5
- call: inactive

C1orf54 #3
- total luciferase, z-score: 1.27
- total luciferase, % of control: 107
- call: inactive

ZNF747 #1
- total luciferase, z-score: 0.966
- total luciferase, % of control: 101
- call: inactive

ZNF747 #2
- total luciferase, z-score: 2.19
- total luciferase, % of control: 125
- call: inactive

ZNF747 #3
- total luciferase, z-score: -0.282
- total luciferase, % of control: 76.3
- call: inactive

FBH1 #1
- total luciferase, z-score: -0.668
- total luciferase, % of control: 68.6
- call: inactive

FBH1 #2
- total luciferase, z-score: -0.0621
- total luciferase, % of control: 80.7
- call: inactive

FBH1 #3
- total luciferase, z-score: -0.376
- total luciferase, % of control: 74.4
- call: inactive

PLXND1 #1
- total luciferase, z-score: -1.16
- total luciferase, % of control: 58.7
- call: inactive

PLXND1 #2
- total luciferase, z-score: 1.81
- total luciferase, % of control: 118
- call: inactive

PLXND1 #3
- total luciferase, z-score: -0.0843
- total luciferase, % of control: 80.2
- call: inactive

An excerpt from above, limited to “total luciferase, z-score”.
ZNF747 #3	-0.282
FBH1 #1	-0.668
